This note sets out measurements from patent US20200002405A1.

Results are given in words; binding and its absence hold for the method and conditions named. For some assays here: A result given as binding can be weak or reduced; the word gives no strength.

Assay [1] concerns the target LCMV Wisconsin (WI) strain GP (LCMV, Wisconsin strain). Kind of assay: immunofluorescence, 293T cells transfected with GP plasmid.
Assay [2] addresses LCMV Massachusetts (MA) strain GP (LCMV, Massachusetts strain). The description is as above.
Assay [3] has as its target LCMV Ohio (OH) strain GP (LCMV, Ohio strain). Described as above.
Assay [4] addresses LCMV Rhode Island (RI) strain GP (LCMV, Rhode Island strain). Described as above.
The target of assay [5] is LCMV Wisconsin (WI) strain GP (LCMV, Wisconsin strain). The assay is described as follows: cross-reactivity, immunofluorescence on GP-transfected 293T cells.
For assay [6], the target named is LCMV Massachusetts (MA) strain GP (LCMV, Massachusetts strain). The description is as above.
In assay [7] the target is LCMV Ohio (OH) strain GP (LCMV, Ohio strain). Described as above.
Assay [8] concerns the target LCMV Rhode Island (RI) strain GP (LCMV, Rhode Island strain). The assay is described as above.
Assay [9] has as its target LCMV Wisconsin (WI) strain GP (LCMV, Wisconsin strain). The assay is described as follows: recognition of LCMV GPs, immunofluorescence.
In assay [10] the target is LCMV Massachusetts (MA) strain GP (LCMV, Massachusetts strain). The assay is described as follows: recognition of LCMV GPs, immunofluorescence.
Assay [11] has as its target LCMV Ohio (OH) strain GP (LCMV, Ohio strain). The assay is described as follows: recognition of LCMV GPs, immunofluorescence.
In assay [12] the target is LCMV Rhode Island (RI) strain GP (LCMV, Rhode Island strain). The assay is described as follows: recognition of LCMV GPs, immunofluorescence.

B1: 8.11G (antibody, V domains shown)
VH: QVQLQESGPGLVKPSETLSLTCSISGVSTRNYYWSWIRQSPGKGLEWIGYIFNIGTTNYNPSLKSRLTISVDTSKNQFSLKITSVTAADTAVYYCASGFEYGDYTFDYWGQGTPVTVSS
VL: EIVLTQSPATLSVSPGGRASLSCRASQSIGDKLSWYQQKPGQAPRLVIYGAYTRATDISPRFSGSRSGTDFNLTISRMQSGDFAVYFCQQYENWPRTFGQGTKLEIKR
As for B1, the binding result in assay [1], in [2], in assay [3] and in [4] was “no binding” throughout.

B2: 36.9F (antibody, V domains shown)
VH: EVQLVQSGGGLVKAGGSLKLSCGASGFTFSSYSMSWVRQAPGKGLEWVSYISSGGSSIHYADSVKGRFTISRDNAKNSLYLQMKNLRVDDTGRYYCVRDPRSGISGRYGMDVWGQGTTVTVSS
VL: DIVMTQSPDSLAVSLGERATINCKSSQTVLFTSYYVAWYQQKPGQPPKLLFSGASSRESGVPDRFSAGGSGTDFYLTINSLQAEDVADYYCQQYHTPPFTFGGGTKLEIRR
As to B2, the binding result in assay [5], in [6], in [7], in [8], in assay [9] and in [10] was “binds” in each case. For the same molecule, the binding result in assay [11] and in assay [12] was “binds” throughout.

B3: 37.2D (antibody, V domains shown)
VH: EVQLVQSGAEVKKPGASVKVSCKASGYTFTKYGISWVRQAPGQGLEWMGWISAFNGYTRYGQRFQGKVTMTTDTSTNTASLEVRTLTSNDTAVYYCARQYPDQYSSSGWPRLFAMDVWGQGTTVIVSP
VL: ETTLTQSPATLSVSPGETATLSCRASQNVINNLAWYQQKPGQAPRLLIYGASTRATGIPARFSGSGSGTEFTLTISSMQSEDFAVYYCQQYNDWPRSFGQGTRLDIRR
In the case of B3, the binding entry in [5], in [6], in [7], in assay [8], in assay [9] and in assay [10] was “binds” in each case. For the same molecule, the binding result in [11] and in assay [12] was “binds” throughout.

B4: 9.8A (antibody, V domains shown)
VH: EVQLVQSGGRLVQPGGSLRLSCVASGFTFSSHAMSWVRQAPGKGLEWVSGFSGSSGTTKYADSVKGRFTISRDNSKKTLYLQMNSLRAEDTAVYYCAKGFSPFRGVQFPYFDYWGQGTLVTVSS
VL: DIVMTQSPSTLSASVGDRVTITCRASQSIDRWLAWYQQKPGKAPKLLIYQASSLERGVPSRFSGSGSGTEFTLTISSLQPDDFATYYCQQYNGYPLTFGGGTKVEIKR
B4: the binding entry in assay [5], in assay [6], in assay [7], in [8], in [9] and in [10] was “binds” each time. Further, the binding result in assay [11] and in assay [12] was “binds” in each case.

B5: 37.7H (antibody, V domains shown)
VH: EVQLVQSGGGLVKAGGSLRLSCAASGFTFSTYSMNWIRQAPGKGLEWVASISSRSGSHINYVDSVKGRFTISRDNARDLLYLQMNSLRVDDSALYYCARDRRSGTSPLPLDVWGQGTTVTVFS
VL: DQSALTQPASVSGSPGQSITISCTGTGSDIGGYNFVSWYQQYPGKAPKLIIYEVRIRASGVSNRFSGSKSGNTASLTISGLQAEDEADYYCNSYSIHSPWVFGGGTKLTVLR
Consider B5, for which the binding entry in assay [3] is given as “no binding”; in assay [4], “no binding”; in assay [5], “binds”; in assay [6], “binds”; in assay [9], “binds”; in [10] it was “binds”.

B6: 37.2G (antibody, V domains shown)
VH: EVQLVESGGGLVKPGGSRRLSCAASGFTFSRDTMTWVRQAPGKGLEWVASISSGSSDINYADSVKGRFTISRDNGKNSLYLHMNSLRADDTAIYYCARDPRSGISGRYGMDVWGQGTTVTVSS
VL: DIVLTQSPGTLSLSPGERATLSCRASQSVNSIFLAWYQQKPGQAPRLLIYGASSRATGIPDRFSGSGSGTDFTLTISRLEPEDFAVYYCQQYHSSPKLTFGGGTKVEIKR
On to B6, for which the binding result in [3] was “no binding”; in assay [4], “no binding”; in assay [5] it was “binds”; in [6] it was “binds”; in assay [9], “binds”; in [10] it was “binds”.

B7: 10.4B (antibody)
VH: DQVQLVQSGGGVVQPGRSLRVSCVTSGFNFRAYGMHWVRQIPGKGLEWVADIWSAETNRHYADSVKGRFTISRDNSKSTLYLQMNSLRAEDTGVYFCAKARPGYDYVVDLWGQGTLVIVSSASTKGPSVFPLAPCSRSTSGGTAALGCLVKDYFPEPVTVSWNSGALTSGVHTFPAVLQSSGL
VL: DEIVLTQSPSSLSASVGDRVTITCRASRDINTYLGWFQQRPGKAPKSLIYGASNLQNGVPSRFSGSGSGTYFTLTINGLQTEDFATYYCQQYSIYPLSLGGGTKADMKRTVAAPSVFIFPPSDEQLKSGTASVVCLLNNFYPREAKVQWKVDNALQSGNSQESVTEQDSKDSTYSLSSTLTLSKADYEKHKVYACEVTHQGLSSP
For B7, the binding entry in assay [1], in [2], in [3] and in assay [4] was “no binding” each time.

B8: 25.6A (antibody, V domains shown)
VH: QVQLQESGGGLVKAGGSLRLSCAASGFMFERYSLHWVRQTPGKGLEWVSSISSLSGSHINYADSVKGRFTISRDNAKNSLSLQMNSLRVEDTAIYYCARDRRSGSSPVPLDVWGQGTTVTVSS
VL: DLPVLTQPASVSGSPGQSITISCTGTSSDVGAYNYVSWYQQHPGKAPKLIIYEVKIRPSGVSNRFSGSKSGNTASLTISGLQAEDEADYFCSSYSTNSPWVFGGGTKVTVLR
With B8, the binding result is “no binding” in assay [3]; “no binding” in [4]; “binds” in [5]; “binds” in assay [6]; “binds” in assay [9]; “binds” in assay [10].
